In PubChem BioAssay (NCATS):
The inconclusive results got no clear call from the source; some entries with a clear call stand among them for comparison. For some assays here: Where the call is inconclusive, the potency comes from a doubtful curve fit. The source made the active and inactive calls. Calls come from the whole dose curve; as a rule, active = well fitted curve in the direction sought with a large enough effect; inconclusive = small, poorly fitted or top-dose-only effect, or another doubt; inactive = no such curve, though single readings can be large; an effect the other way counts as inactive or inconclusive.

Legend:
[1] = Quantitative High-Throughput drug screen in 47 multiple myeloma cell lines against the NCATS MIPE library collection: MOLP8_DSMZ cell viability assay (AID 1918977); note: nearly all actives have a fitted effect of over 45% in size;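 for viability (% of control): 100% = DMSO-only wells and 0% = media-only wells without cells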
Outline: (§1)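 Inhibition of viability over 48 h was scored by ATP content (CellTiter-Glo) in 500-cell wells. Zero and full viability were defined by media-only and DMSO-only wells.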

[2] = Quantitative High-Throughput drug screen in 47 multiple myeloma cell lines against the NCATS MIPE library collection: NCIH929_DSMZ cell viability assay (AID 1918978); settings: NCI-H929 myeloma viability, CellTiter-Glo ATP, 48 h; viability, % of control: at 45.8 µM (top of the series); note: nearly all actives have a fitted effect of over 35% in size
Outline: as §1

[3] = Quantitative High-Throughput drug screen in 47 multiple myeloma cell lines against the NCATS MIPE library collection: OCIMY1_PLB cell viability assay (AID 1918979); note: nearly all actives have a fitted effect of over 35% in size;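 for viability: 100% = DMSO-only wells and 0% = cell-free media-only wells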
Outline: as §1

[4] = Quantitative High-Throughput drug screen in 47 multiple myeloma cell lines against the NCATS MIPE library collection: LP1_DSMZ cell viability assay (AID 1918982); note: nearly all actives have a fitted effect of over 35% in size
Outline: as §1

[5] = Quantitative High-Throughput drug screen in 47 multiple myeloma cell lines against the NCATS MIPE library collection: L363_DSMZ cell viability assay (AID 1918984); settings: L363 myeloma viability, CellTiter-Glo ATP luminescence, 48 h; viability (% of control): at 45.8 µM; note: nearly all actives have a fitted effect of over 40% in size
Outline: as §1

[6] = Quantitative High-Throughput drug screen in 47 multiple myeloma cell lines against the NCATS MIPE library collection: OCIMY7_PLB cell viability assay (AID 1918987); settings: OCI-MY7 myeloma viability, CellTiter-Glo ATP, 48 h; viability (% of DMSO): at 45.8 µM unless noted; note: nearly all actives have a fitted effect of over 65% in size
Outline: as §1

[7] = Quantitative High-Throughput drug screen in 47 multiple myeloma cell lines against the NCATS MIPE library collection: OCIMY5_PLB cell viability assay (AID 1918988); settings: OCI-MY5 myeloma viability, ATP luminescence, 48 h; viability, % of control: at 45.8 µM; note: nearly all actives have a fitted effect of over 65% in size;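 for viability, % of control: 100% = DMSO-treated wells and 0% = wells with media alone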
Outline: as §1

[8] = Quantitative High-Throughput drug screen in 47 multiple myeloma cell lines against the NCATS MIPE library collection: OPM1_PLB cell viability assay (AID 1918989); settings: CellTiter-Glo, 48 h; viability (% of control): at 45.8 µM; note: nearly all actives have a fitted effect of over 40% in size
Outline: as §1

[9] = Quantitative High-Throughput drug screen in 47 multiple myeloma cell lines against the NCATS MIPE library collection: SKMM1_PLB cell viability assay (AID 1919863); settings: SKMM1 myeloma viability, CellTiter-Glo ATP, 48 h; viability: hits give low values; note: nearly all actives have a fitted effect of over 35% in size
Outline: as §1

[10] = Quantitative High-Throughput drug screen in 47 multiple myeloma cell lines against the NCATS MIPE library collection: U266_ATCC cell viability assay (AID 1919864); note: nearly all actives have a fitted effect of over 35% in size;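 for viability (% of DMSO control): 0% = media-only wells without cells and 100% = DMSO-only wells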
Outline: as §1

[11] = Quantitative High-Throughput drug screen in 47 multiple myeloma cell lines against the NCATS MIPE library collection: XG6_PLB cell viability assay (AID 1919865); settings: XG6 myeloma viability, CellTiter-Glo ATP luminescence, 48 h; viability (% of control): at 45.8 µM; note: nearly all actives have a fitted effect of over 40% in size;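 for viability (% of control): 100% = DMSO-only wells and 0% = media-only wells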
Outline: as §1

[12] = Quantitative High-Throughput drug screen in 47 multiple myeloma cell lines against the NCATS MIPE library collection: XG1_PLB cell viability assay (AID 1919866); note: nearly all actives have a fitted effect of over 35% in size
Outline: as §1

[13] = Quantitative High-Throughput drug screen in 47 multiple myeloma cell lines against the NCATS MIPE library collection: PCM6_Riken cell viability assay (AID 1919870); settings: CellTiter-Glo ATP, 48 h; viability (% of control): at 45.8 µM; note: nearly all actives have a fitted effect of over 30% in size;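 for viability (% of control): 100% = DMSO-only wells and 0% = media-only wells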
Outline: as §1

[14] = Quantitative High-Throughput drug screen in 47 multiple myeloma cell lines against the NCATS MIPE library collection: MM1S_ATCC cell viability assay (AID 1918980); note: nearly all actives have a fitted effect of over 45% in size
Outline: as §1

[15] = Quantitative High-Throughput drug screen in 47 multiple myeloma cell lines against the NCATS MIPE library collection: MM1R_ATCC cell viability assay (AID 1918981); note: nearly all actives have a fitted effect of over 35% in size
Outline: as §1

[16] = Quantitative High-Throughput drug screen in 47 multiple myeloma cell lines against the NCATS MIPE library collection: KMS28PE_JCRB cell viability assay (AID 1918983); note: nearly all actives have a fitted effect of over 35% in size
Outline: as §1

[17] = Quantitative High-Throughput drug screen in 47 multiple myeloma cell lines against the NCATS MIPE library collection: KMS34_JCRB cell viability assay (AID 1918985); settings: KMS34 myeloma viability, CellTiter-Glo ATP luminescence, 48 h; viability, percent of control: at 45.8 µM; note: nearly all actives have a fitted effect of over 40% in size;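 for viability, percent of control: 100% = DMSO-only wells and 0% = media-only wells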
Outline: as §1

[18] = Quantitative High-Throughput drug screen in 47 multiple myeloma cell lines against the NCATS MIPE library collection: VP6_DJ cell viability assay (AID 1919867); settings: ATP luminescence, 48 h; viability (% of DMSO): at 45.8 µM; note: nearly all actives have a fitted effect of over 40% in size;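 for viability (% of DMSO): 100% = DMSO-only wells and 0% = wells with media alone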
Outline: as §1

[19] = Quantitative High-Throughput drug screen in 47 multiple myeloma cell lines against the NCATS MIPE library collection: UTMC2_PLB cell viability assay (AID 1919868); settings: CellTiter-Glo ATP luminescence, 48 h; viability (% of DMSO control): at 45.8 µM; note: nearly all actives have a fitted effect of over 55% in size
Outline: as §1

[20] = Quantitative High-Throughput drug screen in 47 multiple myeloma cell lines against the NCATS MIPE library collection: PE2_PLB cell viability assay (AID 1919869); settings: PE2_PLB myeloma cells viability, ATP luminescence, 48 h; viability (% of control): at 45.8 µM; note: nearly all actives have a fitted effect of over 35% in size
Outline: as §1
Potency is the fitted concentration of half-maximal effect.

COc1cnc(NS(=O)(=O)c2ccc(N)cc2)nc1
inactive: Potency [1] | Potency [3] | Potency [7] | viability [9] 141% | Potency [10]
inconclusive: Potency [2] 33.2 µM [cytotoxic, single point] | Potency [4] 0.0019 µM [cytotoxic, partial curve, poor fit] | Potency [5] 8.33 µM [cytotoxic, partial curve, poor fit] | Potency [6] 16.6 µM [cytotoxic, partial curve, poor fit] | Potency [8] 33.2 µM [cytotoxic, single point] | viability (% of control) [11] 62.3% [cytotoxic] | Potency [12] 20.9 µM [cytotoxic, partial curve] | Potency [13] 16.6 µM [cytotoxic, partial curve]

CCOC(=O)[C@H]1O[C@H]1C(=O)N[C@@H](CC(C)C)C(=O)NCCC(C)C
inactive: Potency [1] | Potency [2] | Potency [3] | Potency [15] | Potency [4] | Potency [6] | Potency [12]
inconclusive: Potency [14] 20.9 µM [cytotoxic, partial curve, poor fit] | Potency [16] 13.2 µM [cytotoxic, partial curve, poor fit] | Potency [5] 0.0235 µM [cytotoxic, full curve, poor fit] | Potency [17] 10.5 µM [cytotoxic, partial curve, poor fit] | Potency [8] 7.43 µM [cytotoxic, full curve, poor fit] | Potency [9] 5.9 µM [cytotoxic, partial curve, poor fit] | viability (% of DMSO) [18] 109% [cytotoxic]
active: Potency [13] 5.9 µM

CC(C)CN(C[C@@H](O)[C@H](Cc1ccccc1)NC(=O)O[C@H]1CO[C@H]2OCC[C@H]21)S(=O)(=O)c1ccc(N)cc1
active: Potency [6] 2.96 µM | Potency [10] 1.32 µM | Potency [11] 3.72 µM
inconclusive: Potency [2] 2.96 µM [cytotoxic, full curve] | Potency [5] 0.0066 µM [cytotoxic, full curve, poor fit] | Potency [8] 26.4 µM [cytotoxic, single point] | Potency [9] 26.4 µM [cytotoxic, single point]
inactive: Potency [1] | Potency [3] | Potency [17]

O=C(c1cc(Cc2n[nH]c(=O)c3ccccc23)ccc1F)N1CCN(C(=O)C2CC2)CC1
inconclusive: Potency [2] 18.7 µM [cytotoxic, partial curve] | Potency [15] 23.5 µM [cytotoxic, single point] | Potency [4] 23.5 µM [cytotoxic, single point] | Potency [16] 1.87 µM [rising, full curve, poor fit] | Potency [5] 33.2 µM [cytotoxic, single point] | Potency [7] 18.7 µM [cytotoxic, partial curve, poor fit] | Potency [10] 3.72 µM [cytotoxic, full curve, poor fit] | Potency [12] 16.6 µM [cytotoxic, partial curve] | Potency [18] 37.2 µM [cytotoxic, single point]
inactive: Potency [1] | Potency [17] | viability [9] 93.3%
active: Potency [14] 23.5 µM | Potency [11] 13.2 µM | Potency [19] 10.5 µM | Potency [13] 11.8 µM

CC(=O)[C@]1(O)Cc2c(O)c3c(c(O)c2[C@@H](O[C@H]2C[C@H](N)[C@@H](O)[C@H](C)O2)C1)C(=O)c1ccccc1C3=O
active: Potency [1] 0.132 µM | Potency [2] 0.166 µM | Potency [3] 0.743 µM | Potency [8] 0.418 µM | Potency [20] 0.132 µM

COc1c(C)c2c(c(O)c1CC=C(C)CCC(=O)O)C(=O)OC2
inactive: Potency [13]
inconclusive: Potency [1] 3.72 µM [cytotoxic, full curve] | Potency [2] 9.35 µM [cytotoxic, partial curve] | Potency [4] 7.43 µM [cytotoxic, full curve] | Potency [17] 3.72 µM [cytotoxic, full curve] | Potency [12] 2.64 µM [cytotoxic, full curve] | Potency [19] 6.62 µM [cytotoxic, partial curve, poor fit]
active: Potency [3] 13.2 µM | Potency [6] 4.69 µM | Potency [9] 5.26 µM | Potency [10] 8.33 µM

Nc1ncn([C@@H]2O[C@H](CO)[C@@H](O)[C@@H]2O)c(=O)n1
active: Potency [2] 3.72 µM | Potency [3] 14.8 µM | Potency [7] 9.35 µM | Potency [9] 13.2 µM | Potency [10] 10.5 µM
inconclusive: Potency [1] 10.5 µM [cytotoxic, partial curve, poor fit] | Potency [4] 13.2 µM [cytotoxic, partial curve, poor fit]
